Results: paper PMC3798409
No constants are given. Whether binding was seen depends on the method and setting. In cells and extracts the contact can be indirect. Some entries that bind do so weakly or less than the wild type.

By UniProt entry, the sequences of proteins in these tests, tags left out.
UniProt B2RWS6: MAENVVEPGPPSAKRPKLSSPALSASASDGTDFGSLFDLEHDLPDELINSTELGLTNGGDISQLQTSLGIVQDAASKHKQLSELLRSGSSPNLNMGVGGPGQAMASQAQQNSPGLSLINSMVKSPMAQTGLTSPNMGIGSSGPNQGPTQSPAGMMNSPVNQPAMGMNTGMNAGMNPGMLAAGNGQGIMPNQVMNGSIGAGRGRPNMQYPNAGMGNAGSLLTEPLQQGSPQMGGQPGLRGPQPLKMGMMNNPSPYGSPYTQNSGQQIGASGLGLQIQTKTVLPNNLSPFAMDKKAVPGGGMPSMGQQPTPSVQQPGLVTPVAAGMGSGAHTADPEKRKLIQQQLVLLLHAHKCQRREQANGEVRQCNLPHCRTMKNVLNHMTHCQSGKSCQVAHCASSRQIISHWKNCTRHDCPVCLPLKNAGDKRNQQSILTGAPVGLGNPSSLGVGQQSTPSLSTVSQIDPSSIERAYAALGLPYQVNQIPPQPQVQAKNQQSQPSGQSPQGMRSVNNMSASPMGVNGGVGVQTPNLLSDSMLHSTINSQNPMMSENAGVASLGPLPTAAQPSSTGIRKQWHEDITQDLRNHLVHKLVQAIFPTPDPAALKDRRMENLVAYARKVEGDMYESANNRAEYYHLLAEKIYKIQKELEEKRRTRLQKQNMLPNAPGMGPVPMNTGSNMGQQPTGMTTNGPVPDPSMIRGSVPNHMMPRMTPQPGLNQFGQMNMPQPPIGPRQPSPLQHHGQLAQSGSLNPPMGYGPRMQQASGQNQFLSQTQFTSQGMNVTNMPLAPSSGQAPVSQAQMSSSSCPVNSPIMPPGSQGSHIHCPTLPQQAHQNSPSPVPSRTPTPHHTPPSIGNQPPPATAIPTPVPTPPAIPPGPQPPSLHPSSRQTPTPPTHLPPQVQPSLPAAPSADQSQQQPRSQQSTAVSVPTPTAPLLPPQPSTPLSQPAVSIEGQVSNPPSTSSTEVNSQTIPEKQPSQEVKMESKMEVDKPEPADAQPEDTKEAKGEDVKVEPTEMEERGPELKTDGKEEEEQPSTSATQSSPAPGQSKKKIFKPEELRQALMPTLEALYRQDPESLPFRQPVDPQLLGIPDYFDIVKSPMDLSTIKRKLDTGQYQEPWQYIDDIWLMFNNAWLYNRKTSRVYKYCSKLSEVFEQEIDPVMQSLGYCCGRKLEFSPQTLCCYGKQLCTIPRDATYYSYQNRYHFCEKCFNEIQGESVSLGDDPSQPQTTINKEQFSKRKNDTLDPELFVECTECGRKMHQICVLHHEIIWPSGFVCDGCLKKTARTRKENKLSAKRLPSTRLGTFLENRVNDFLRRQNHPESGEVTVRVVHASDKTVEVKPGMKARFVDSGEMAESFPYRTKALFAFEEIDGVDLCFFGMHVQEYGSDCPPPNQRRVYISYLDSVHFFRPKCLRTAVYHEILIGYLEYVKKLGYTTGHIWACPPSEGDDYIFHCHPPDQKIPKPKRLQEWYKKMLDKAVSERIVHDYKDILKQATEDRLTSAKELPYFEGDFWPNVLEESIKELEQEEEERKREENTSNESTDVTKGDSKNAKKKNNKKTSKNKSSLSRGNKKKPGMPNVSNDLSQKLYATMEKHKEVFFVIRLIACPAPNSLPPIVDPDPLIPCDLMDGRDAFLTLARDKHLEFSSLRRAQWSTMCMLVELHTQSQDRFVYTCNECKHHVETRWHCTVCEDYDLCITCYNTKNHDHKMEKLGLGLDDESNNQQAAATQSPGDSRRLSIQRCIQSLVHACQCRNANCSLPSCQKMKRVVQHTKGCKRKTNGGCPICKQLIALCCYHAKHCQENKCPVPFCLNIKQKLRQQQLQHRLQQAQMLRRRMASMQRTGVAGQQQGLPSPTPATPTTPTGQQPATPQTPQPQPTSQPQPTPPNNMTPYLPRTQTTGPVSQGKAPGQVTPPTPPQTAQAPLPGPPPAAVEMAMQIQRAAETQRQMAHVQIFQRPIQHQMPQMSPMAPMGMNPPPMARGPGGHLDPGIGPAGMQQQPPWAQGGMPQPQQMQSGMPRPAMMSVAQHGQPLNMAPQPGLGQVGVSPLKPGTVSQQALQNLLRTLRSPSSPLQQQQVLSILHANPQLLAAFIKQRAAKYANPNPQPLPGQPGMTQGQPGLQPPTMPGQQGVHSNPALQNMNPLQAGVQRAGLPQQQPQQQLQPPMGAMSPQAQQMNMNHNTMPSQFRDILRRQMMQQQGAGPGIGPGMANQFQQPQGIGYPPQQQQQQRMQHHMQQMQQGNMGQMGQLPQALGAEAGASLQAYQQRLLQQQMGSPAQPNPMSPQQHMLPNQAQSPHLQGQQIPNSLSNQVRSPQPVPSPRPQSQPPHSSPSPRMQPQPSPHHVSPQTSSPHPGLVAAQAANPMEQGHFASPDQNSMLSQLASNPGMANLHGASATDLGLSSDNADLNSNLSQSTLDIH

Molecular target: p300 (mouse (endogenous in embryonic heart)) (UniProt B2RWS6)
Test: co-IP; nuclear proteins from E14.5 mouse embryonic hearts; precleared with normal IgG; precipitated with anti-p300 antibody and protein A/G-agarose at 4°C; Western blot with Islet-1 antibody

B1: Islet-1 (protein, UniProt P61372 1-349)
chain: MGDMGDPPKKKRLISLCVGCGNQIHDQYILRVSPDLEWHAACLKCAECNQYLDESCTCFVRDGKTYCKRDYIRLYGIKCAKCSIGFSKNDFVMRARSKVYHIECFRCVACSRQLIPGDEFALREDGLFCRADHDVVERASLGAGDPLSPLHPARPLQMAAEPISARQPALRPHVHKQPEKTTRVRTVLNEKQLHTLRTCYAANPRPDALMKEQLVEMTGLSPRVIRVWFQNKRCKDKKRSIMMKQLQQQQPNDKTNIQGMTGTPMVAASPERHDGGLQANPVEVQSYQPPWKVLSDFALQSDIDQPAFQQLVNFSEGGPGSNSTGSEVASMSSQLPDTPNSMVASPIEA
Q: How did the binding turn out when B1 was run?
A: binds
